According to the supplement of paper PMC11006884:
The entries are a selection whose mix differs from that of the whole data set. This is a noisy data set.

The chains behind the UniProt entries cited, without tags or fusion partners. Where a name states a change or a piece, a line headed by the entry shows the natural chain unless it says otherwise.
UniProt Q7Z7K6: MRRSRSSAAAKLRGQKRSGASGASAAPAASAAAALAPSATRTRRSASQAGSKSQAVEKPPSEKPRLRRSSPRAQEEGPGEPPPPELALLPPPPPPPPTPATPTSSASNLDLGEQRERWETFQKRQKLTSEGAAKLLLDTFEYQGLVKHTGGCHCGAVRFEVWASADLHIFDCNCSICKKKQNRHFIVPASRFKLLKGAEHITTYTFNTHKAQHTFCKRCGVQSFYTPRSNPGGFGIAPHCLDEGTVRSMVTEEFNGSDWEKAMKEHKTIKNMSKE
UniProt Q8IY95: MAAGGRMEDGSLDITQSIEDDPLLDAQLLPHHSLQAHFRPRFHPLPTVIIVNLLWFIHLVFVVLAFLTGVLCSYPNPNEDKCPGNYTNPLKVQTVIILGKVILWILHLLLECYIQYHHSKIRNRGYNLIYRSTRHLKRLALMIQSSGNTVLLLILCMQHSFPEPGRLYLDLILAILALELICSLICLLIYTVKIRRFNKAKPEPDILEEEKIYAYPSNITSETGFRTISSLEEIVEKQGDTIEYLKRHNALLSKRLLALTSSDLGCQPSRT
UniProt Q8IY26: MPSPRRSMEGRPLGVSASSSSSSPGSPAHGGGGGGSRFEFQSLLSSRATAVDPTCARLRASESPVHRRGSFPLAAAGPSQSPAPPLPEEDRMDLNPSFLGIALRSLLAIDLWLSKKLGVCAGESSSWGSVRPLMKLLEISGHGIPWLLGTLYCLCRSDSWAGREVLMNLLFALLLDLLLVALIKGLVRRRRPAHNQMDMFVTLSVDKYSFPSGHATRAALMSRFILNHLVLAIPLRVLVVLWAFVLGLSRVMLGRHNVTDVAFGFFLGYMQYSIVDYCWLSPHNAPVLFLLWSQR
UniProt Q8IYB7: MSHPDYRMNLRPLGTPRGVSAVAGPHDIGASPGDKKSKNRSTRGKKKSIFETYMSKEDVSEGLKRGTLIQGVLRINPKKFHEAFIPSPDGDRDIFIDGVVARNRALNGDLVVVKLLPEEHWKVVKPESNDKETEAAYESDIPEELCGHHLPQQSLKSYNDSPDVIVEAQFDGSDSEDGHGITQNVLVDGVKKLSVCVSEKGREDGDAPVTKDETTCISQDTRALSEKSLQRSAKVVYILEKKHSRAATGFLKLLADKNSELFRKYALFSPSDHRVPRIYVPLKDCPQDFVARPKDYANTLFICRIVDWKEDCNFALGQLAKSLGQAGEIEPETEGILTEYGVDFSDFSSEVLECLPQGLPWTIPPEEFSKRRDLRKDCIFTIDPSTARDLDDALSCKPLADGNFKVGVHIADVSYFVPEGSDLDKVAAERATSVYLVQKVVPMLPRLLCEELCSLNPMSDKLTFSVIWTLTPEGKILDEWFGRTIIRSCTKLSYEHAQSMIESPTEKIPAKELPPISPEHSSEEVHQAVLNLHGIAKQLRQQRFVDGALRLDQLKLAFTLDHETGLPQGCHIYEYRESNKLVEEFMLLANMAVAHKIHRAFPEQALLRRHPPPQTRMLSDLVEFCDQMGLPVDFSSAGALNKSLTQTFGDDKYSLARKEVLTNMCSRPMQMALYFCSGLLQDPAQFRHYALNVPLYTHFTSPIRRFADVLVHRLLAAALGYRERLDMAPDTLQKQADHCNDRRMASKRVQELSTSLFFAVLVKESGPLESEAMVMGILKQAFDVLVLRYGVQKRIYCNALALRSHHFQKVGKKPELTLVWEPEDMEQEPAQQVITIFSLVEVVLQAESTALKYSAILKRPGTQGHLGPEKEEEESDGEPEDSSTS
UniProt Q7Z2W4: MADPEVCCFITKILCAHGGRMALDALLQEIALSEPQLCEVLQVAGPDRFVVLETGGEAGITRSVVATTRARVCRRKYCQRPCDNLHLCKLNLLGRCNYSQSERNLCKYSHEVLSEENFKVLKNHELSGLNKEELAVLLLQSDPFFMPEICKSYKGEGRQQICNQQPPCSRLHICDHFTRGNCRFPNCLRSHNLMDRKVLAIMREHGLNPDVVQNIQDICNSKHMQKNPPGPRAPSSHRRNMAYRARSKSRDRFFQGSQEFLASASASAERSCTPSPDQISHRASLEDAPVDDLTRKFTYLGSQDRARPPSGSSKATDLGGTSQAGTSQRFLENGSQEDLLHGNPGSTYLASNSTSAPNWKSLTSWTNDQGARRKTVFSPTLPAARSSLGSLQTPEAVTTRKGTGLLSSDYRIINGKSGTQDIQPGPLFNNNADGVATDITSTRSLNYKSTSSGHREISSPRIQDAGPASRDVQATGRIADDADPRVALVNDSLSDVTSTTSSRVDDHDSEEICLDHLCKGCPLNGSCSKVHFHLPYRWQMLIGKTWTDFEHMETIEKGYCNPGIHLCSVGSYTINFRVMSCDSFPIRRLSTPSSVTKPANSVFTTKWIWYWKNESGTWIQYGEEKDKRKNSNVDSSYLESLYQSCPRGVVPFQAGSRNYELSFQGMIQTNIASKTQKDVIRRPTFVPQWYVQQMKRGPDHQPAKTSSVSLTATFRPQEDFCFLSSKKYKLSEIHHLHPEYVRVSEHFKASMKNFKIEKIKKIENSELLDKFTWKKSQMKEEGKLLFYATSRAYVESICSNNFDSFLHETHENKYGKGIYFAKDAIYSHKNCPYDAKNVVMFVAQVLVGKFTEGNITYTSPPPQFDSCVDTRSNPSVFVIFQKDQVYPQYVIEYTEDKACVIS
UniProt Q7L2E3: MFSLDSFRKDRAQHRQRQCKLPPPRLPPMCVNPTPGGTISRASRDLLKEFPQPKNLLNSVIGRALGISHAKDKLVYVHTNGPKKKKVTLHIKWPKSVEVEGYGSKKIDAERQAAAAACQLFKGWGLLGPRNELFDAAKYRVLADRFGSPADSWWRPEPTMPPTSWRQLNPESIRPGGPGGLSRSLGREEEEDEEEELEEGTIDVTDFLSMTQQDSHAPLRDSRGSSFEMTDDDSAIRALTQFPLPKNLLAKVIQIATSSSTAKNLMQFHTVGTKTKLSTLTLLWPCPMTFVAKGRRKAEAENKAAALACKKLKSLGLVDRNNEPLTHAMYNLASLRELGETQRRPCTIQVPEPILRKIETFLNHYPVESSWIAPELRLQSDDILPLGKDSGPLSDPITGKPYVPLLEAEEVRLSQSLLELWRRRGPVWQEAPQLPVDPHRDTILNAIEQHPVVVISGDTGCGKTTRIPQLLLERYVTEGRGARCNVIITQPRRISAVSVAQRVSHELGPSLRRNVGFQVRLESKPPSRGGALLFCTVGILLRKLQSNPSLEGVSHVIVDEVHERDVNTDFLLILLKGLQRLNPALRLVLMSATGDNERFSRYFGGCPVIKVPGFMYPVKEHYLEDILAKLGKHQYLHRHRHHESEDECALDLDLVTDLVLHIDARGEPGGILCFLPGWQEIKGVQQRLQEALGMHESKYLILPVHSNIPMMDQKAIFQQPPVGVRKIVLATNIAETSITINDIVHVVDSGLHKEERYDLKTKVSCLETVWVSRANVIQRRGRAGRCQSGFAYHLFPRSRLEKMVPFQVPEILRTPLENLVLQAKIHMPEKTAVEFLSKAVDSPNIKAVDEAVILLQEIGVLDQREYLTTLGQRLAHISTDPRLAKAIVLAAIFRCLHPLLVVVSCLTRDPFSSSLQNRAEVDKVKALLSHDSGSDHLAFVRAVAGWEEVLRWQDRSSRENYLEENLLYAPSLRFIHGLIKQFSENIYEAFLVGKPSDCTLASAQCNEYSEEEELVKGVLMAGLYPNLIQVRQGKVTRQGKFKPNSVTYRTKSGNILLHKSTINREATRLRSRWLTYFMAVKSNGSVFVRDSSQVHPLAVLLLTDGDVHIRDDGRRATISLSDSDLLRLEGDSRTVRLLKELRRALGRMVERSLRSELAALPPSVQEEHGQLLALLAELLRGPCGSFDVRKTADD
UniProt Q86UV5: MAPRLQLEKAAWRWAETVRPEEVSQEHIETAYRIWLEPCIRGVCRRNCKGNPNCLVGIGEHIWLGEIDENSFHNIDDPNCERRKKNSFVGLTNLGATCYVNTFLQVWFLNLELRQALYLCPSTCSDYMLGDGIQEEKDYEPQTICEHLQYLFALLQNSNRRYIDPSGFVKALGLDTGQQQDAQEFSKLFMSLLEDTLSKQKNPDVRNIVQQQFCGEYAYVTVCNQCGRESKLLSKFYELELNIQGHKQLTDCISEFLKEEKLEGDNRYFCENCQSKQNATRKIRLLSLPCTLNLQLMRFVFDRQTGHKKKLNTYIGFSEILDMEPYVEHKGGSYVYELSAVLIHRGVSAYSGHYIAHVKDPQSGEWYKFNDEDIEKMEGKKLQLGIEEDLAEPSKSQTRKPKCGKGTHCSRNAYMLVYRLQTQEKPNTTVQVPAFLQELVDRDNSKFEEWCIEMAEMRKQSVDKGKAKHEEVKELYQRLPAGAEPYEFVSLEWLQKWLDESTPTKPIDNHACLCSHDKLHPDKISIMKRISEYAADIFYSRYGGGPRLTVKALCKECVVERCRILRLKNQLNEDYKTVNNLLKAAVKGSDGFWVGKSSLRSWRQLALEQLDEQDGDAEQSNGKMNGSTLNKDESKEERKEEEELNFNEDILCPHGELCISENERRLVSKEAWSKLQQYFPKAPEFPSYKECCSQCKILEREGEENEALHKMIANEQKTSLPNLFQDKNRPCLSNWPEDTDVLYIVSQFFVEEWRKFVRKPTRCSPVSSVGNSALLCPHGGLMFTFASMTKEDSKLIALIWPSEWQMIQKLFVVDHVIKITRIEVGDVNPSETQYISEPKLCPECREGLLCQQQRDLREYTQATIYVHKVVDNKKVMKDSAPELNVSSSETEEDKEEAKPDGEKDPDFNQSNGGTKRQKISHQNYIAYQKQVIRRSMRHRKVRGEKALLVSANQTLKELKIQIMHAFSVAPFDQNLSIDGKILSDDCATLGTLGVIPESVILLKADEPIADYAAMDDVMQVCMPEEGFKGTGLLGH
UniProt Q86VP6: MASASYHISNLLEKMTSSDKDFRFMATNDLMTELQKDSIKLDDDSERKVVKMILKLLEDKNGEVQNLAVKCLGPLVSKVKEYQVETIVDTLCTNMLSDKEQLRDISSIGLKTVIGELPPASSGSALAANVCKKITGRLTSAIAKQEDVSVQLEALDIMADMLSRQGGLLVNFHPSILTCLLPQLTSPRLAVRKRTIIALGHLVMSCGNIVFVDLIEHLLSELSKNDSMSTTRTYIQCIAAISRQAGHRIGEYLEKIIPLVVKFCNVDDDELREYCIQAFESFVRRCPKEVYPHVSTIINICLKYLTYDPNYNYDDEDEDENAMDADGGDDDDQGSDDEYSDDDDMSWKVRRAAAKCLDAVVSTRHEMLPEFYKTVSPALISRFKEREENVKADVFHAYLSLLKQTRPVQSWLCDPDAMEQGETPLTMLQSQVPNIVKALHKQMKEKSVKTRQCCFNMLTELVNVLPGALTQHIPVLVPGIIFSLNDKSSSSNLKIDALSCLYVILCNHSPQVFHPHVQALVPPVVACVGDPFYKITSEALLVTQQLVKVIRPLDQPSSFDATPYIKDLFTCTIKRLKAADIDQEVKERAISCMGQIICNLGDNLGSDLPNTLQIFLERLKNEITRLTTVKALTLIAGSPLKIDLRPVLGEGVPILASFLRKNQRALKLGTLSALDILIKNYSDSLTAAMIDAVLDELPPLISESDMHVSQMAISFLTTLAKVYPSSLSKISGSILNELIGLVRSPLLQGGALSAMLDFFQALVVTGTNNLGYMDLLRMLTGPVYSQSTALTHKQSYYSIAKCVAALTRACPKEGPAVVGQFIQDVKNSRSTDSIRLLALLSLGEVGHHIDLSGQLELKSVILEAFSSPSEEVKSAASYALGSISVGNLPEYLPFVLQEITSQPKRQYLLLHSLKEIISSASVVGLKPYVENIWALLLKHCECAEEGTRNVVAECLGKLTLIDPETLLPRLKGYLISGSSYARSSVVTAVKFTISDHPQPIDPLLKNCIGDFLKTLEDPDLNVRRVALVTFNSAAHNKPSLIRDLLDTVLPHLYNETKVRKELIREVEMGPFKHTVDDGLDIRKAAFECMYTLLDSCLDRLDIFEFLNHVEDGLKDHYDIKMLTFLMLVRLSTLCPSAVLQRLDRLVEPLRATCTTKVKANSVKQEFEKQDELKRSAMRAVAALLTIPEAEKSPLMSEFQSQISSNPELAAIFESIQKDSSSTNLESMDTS
UniProt Q8IWB7: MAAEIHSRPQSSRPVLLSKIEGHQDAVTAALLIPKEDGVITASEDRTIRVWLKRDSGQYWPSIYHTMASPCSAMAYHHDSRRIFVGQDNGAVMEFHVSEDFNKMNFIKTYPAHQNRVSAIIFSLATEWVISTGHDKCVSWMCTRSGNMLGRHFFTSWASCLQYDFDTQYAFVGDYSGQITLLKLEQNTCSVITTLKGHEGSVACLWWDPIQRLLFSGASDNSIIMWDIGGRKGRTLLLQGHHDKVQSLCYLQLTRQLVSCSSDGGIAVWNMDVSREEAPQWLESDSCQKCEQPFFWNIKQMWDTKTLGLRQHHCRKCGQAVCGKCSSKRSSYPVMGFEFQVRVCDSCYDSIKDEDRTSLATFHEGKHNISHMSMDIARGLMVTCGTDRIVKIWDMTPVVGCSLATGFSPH

compound: COC(=O)/C=C/c1ccccc1 [methyl cinnamate]; test: log2 ratio of iodoacetamide-alkyne labeling of the cysteine site, DMSO over compound (competition); higher = stronger covalent engagement of the cysteine by the compound, active = 1 or more; settings: 500 µM; treatment time 1 h; system: HEK293T cell lysate
Procedure, shortened: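 Three replicates, each with duplicate channels, were prepared from HEK293T lysate (2 mg/mL) treated with vehicle or electrophile at 500 µM for 1 h at ambient temperature. Iodoacetamide alkyne was then applied for 1 h, and samples were clicked to sCIP-TMT reagents, pooled, trypsin-digested overnight at 37 °C, enriched on streptavidin, acid-eluted and analysed on Orbitrap Eclipse LC-MS/MS with FAIMS, with FragPipe quantification. The log2 competition ratio per cysteine is the mean control-channel divided by the mean compound-channel reporter intensity. Cysteines quantified in only one replicate were left out.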

log2 ratio of iodoacetamide-alkyne labeling, inactive:
IRF2BP2 C37 (UniProt Q7Z5L9) -0.0956
MED13L C1204 (UniProt Q71F56) 0.368
CENPV C240 (UniProt Q7Z7K6) -0.000827
PHF6 C212 (UniProt Q8IWS0) 0.0185
TMEM192 C266 (UniProt Q8IY95) 0.161
MAP7D3 C315 (UniProt Q8IWC1) 0.217
UniProt Q7Z695_C624 -0.0902
UniProt Q8IY26_C55 0.442
ANKLE2 C254 (UniProt Q86XL3) 0.137
KIF21A C299 (UniProt Q7Z4S6) 0.0727
UniProt Q7LBC6_C1212 0.164
MEPCE C244 (UniProt Q7L2J0) 0.116
UniProt Q7Z4H7_C885 0.134
DIS3L2 C146 (UniProt Q8IYB7) -0.0896
ASRGL1 C115 (UniProt Q7L266) -0.322
PHF6 C280 (UniProt Q8IWS0) -0.178
ZC3HAV1 C162 (UniProt Q7Z2W4) 0.0769
HUWE1 C1628 (UniProt Q7Z6Z7) 0.229
HUWE1 C3361 (UniProt Q7Z6Z7) 0.47
CKAP2L C124 (UniProt Q8IYA6) 0.371
UniProt Q7RTV0_C61 0.272
UniProt Q86Y56_C420 0.0712
NUFIP2 C234 (UniProt Q7Z417) 0.0578
UniProt Q86Y56_C365 -0.053
DHX40 C33 (UniProt Q8IX18) 0.284
DHX30 C461 (UniProt Q7L2E3) 0.152
USP48 C54 (UniProt Q86UV5) -0.0926
CAND1 C413 (UniProt Q86VP6) 0.393
USP48 C986 (UniProt Q86UV5) -0.103
KTN1 C1105 (UniProt Q86UP2) 0.497
ANKLE2 C674 (UniProt Q86XL3) -0.228
UniProt Q7L0Y3_C123 -0.142
DHX30 C309 (UniProt Q7L2E3) 0.517
POGZ C1267 (UniProt Q7Z3K3) 0.197
PARG C397 (UniProt Q86W56) 0.184
UniProt Q8IYB1_C16 0.141
WDFY1 C401 (UniProt Q8IWB7) 0.23

As a short view, some entries already given:
log2 ratio of iodoacetamide-alkyne labeling, inactive:
USP48 C54 (UniProt Q86UV5) -0.0926
CAND1 C413 (UniProt Q86VP6) 0.393
USP48 C986 (UniProt Q86UV5) -0.103
